Assay results from the supplement of paper PMC7646827.
Counter-ions that a name gives are not always drawn. Many values rest on one well or one pass, so single values are uncertain.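 All cells are established human bladder cancer lines, one derived from a patient-derived xenograft. A luminescent ATP assay measured viability as percent inhibition relative to vehicle across seven dilutions. The paper rates scores above 59 very active, 30–59 active, 21–29 semi-active, 9–20 low active, below 9 inactive.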

What was measured:
Experiment in all cases: drug sensitivity score DSS3 (score 0-100); higher = more sensitive; extreme values may be limits of the assay
Details in all cases: culture: 3D, ultra-low attachment; treatment time: 5 days
[1] = test system: J82
[2] = test system: SW780
[3] = test system: TCCSUP
[4] = test system: T-24
[5] = test system: UM-UC-17
[6] = test system: UM-UC-5
[7] = test system: SCaBER
[8] = test system: UM-UC-14
[9] = test system: 5637
[10] = test system: UM-UC-15
[11] = test system: UM-UC-1
[12] = test system: UM-UC-12
[13] = test system: UM-UC-9
[14] = test system: UM-UC-18
[15] = test system: BC8149
[16] = test system: UM-UC-6

SMILES | drug sensitivity score DSS3 [1] | drug sensitivity score DSS3 [2] | drug sensitivity score DSS3 [3] | drug sensitivity score DSS3 [4] | drug sensitivity score DSS3 [5] | drug sensitivity score DSS3 [6] | drug sensitivity score DSS3 [7] | drug sensitivity score DSS3 [8] | drug sensitivity score DSS3 [9] | drug sensitivity score DSS3 [10] | drug sensitivity score DSS3 [11] | drug sensitivity score DSS3 [12] | drug sensitivity score DSS3 [13] | drug sensitivity score DSS3 [14] | drug sensitivity score DSS3 [15] | drug sensitivity score DSS3 [16]
CC(C)c1onc(-c2c(Cl)cccc2Cl)c1COc1ccc(/C=C/c2cccc(C(=O)O)c2)c(Cl)c1 [GW4064] (max dose 10000 nM) | 0 | 0.488 | 0 | 0 | 1.88 | 0 | 0 | 0 | 3.39 | 0 | 0 | 0 | 0 | 0 | 0 | 0
CNC(=O)CN1CCC(Oc2cc3c(Nc4cccc(Cl)c4F)ncnc3cc2OC)CC1 [Sapitinib] (max dose 10000 nM) | 0.138 | 0 | 4.27 | 3.4 | 0 | 0 | 23.2 | 3.27 | 21 | 0 | 1.1 | 20.8 | 3.42 | 11.2 | 4.34 | 8.37
CC1(COc2ccc3c(c2)ncn3-c2ccc3cccc(N4CCC(N)CC4)c3n2)COC1 (max dose 10000 nM) | 0 | 0 | 0 | 1.5 | 0 | 0 | 1.14 | 0.305 | 0.0883 | 0 | 0.0957 | 9.09 | 0 | 7.3 | 0.144 | 0.437
CNC(=O)c1cc(Oc2ccc(NC(=O)Nc3ccc(Cl)c(C(F)(F)F)c3)cc2)ccn1 [Sorafenib tosylate] (max dose 10000 nM) | 0 | 0 | 6.89 | 0 | 0 | 0 | 6.83 | 1.12 | 7.53 | 0.0974 | 0 |  | 0.208 | 15.8 | 0 | 1.3
C[C@@H](N)[C@H]1CC[C@H](C(=O)Nc2ccncc2)CC1 (max dose 10000 nM) | 0 | 0 | 0 | 0 | 0 | 0 | 0 | 0 | 0 | 0 | 0 | 0 | 0 | 0 | 0 | 0
Nc1nc(OCc2cc(Br)cs2)c2[nH]cnc2n1 [Lomeguatrib] (max dose 10000 nM) | 0 | 0 | 0 | 0 | 0 | 0 | 0 | 0 | 0 | 0 | 0 | 0 | 0 | 0 | 0 | 0
Nc1ncnc2c1ccn2[C@@H]1O[C@H]([C@H](O)c2ccccc2)[C@@H](O)[C@H]1O [LLY-283] (max dose 10000 nM) | 0.0732 | 0 | 0.823 | 1.45 | 6.63 | 0 | 0.579 | 0.578 | 3.57 | 26.9 | 2.03 | 17.4 | 8.85 | 4.25 | 7.65 | 1.1
COc1nc(OCc2cccc(-c3ccccc3)c2C)ccc1CNCCNC(C)=O [BMS202 (PD-1/PD-L1 inhibitor 2)] (max dose 10000 nM) | 0 | 0 | 2.34 | 0 | 0 | 0 | 0 | 0.929 | 0.254 | 1.87 | 0.712 | 0 | 0 | 0.191 | 0.824 | 0.249
O=c1cc(-c2cccc3c2Sc2ccccc2S3)oc(N2CCOCC2)c1 (max dose 10000 nM) | 0 | 0 | 0.881 | 0.0676 | 0.264 | 0 | 0.109 | 0.0618 | 0.361 | 0 | 0 | 0 | 0 | 0.696 | 0.253 | 0.258
CN1CCN(c2cccc(Nc3nc4c(-c5ccc(S(C)(=O)=O)cc5)cccn4n3)c2)CC1 (max dose 10000 nM) | 0 | 0 | 0 | 0 | 0 | 0 | 0 | 0 | 3.75 | 0 | 0 | 0 | 0 | 0 | 6.51 | 0
O=C(/C=C/c1cccc(S(=O)(=O)Nc2ccccc2)c1)NO [Belinostat (PXD101)] (max dose 10000 nM) | 6.89 | 0 | 8.75 | 2.03 | 4.19 | 1.63 | 1.63 | 1.29 | 4.79 | 4.01 | 0 | 4.35 | 1.2 | 8.66 | 5.55 | 1.15
Cc1cc(CN2CCN(c3c(Br)cnc4nc(-c5ccc(N6CCN(C)CC6)cc5)[nH]c34)CC2)no1 (max dose 10000 nM) | 0 | 0 | 3.86 | 0 | 0.627 | 0 | 0 | 0.283 | 1.38 | 0 | 0.644 | 0 | 0 | 0.506 | 0 | 0.6
Cn1cc(-c2ccc3nnc(Sc4ccc5ncccc5c4)n3n2)cn1 [SGX-523] (max dose 5000 nM) | 0 | 5.03 | 10.2 | 0 | 5.26 | 2.08 | 5.41 | 1.74 | 11.3 | 3.12 | 3.82 | 6.36 | 3.83 | 4.94 | 8.92 | 2.82
Cc1ccc2c(=O)c3cccc(CC(=O)O)c3oc2c1C [DMXAA (Vadimezan)] (max dose 10000 nM) | 0 | 0 | 0.0964 | 0.0132 | 0 | 0.0585 | 0.716 | 0.542 | 0 | 9.61 | 0.402 | 0 | 0.0478 | 1.91 | 0.43 | 0.161
CCN(C)S(=O)(=O)Nc1ccc(F)c(C(=O)c2c[nH]c3ncc(-c4cnc(C5CC5)nc4)cc23)c1F [PLX7904] (max dose 10000 nM) | 0 | 0 | 0.0636 | 0 | 0 | 0 | 0 | 0.0101 | 0 | 24.7 | 0 | 0 | 0 | 0 | 0 | 0
Cc1[nH]c(/C=C2\C(=O)Nc3ccc(S(=O)(=O)Cc4c(Cl)cccc4Cl)cc32)c(C)c1C(=O)N1CCC[C@@H]1CN1CCCC1 (max dose 10000 nM) | 1.85 | 0 | 10.2 | 4.88 | 0.708 | 3.45 | 0 | 1.01 | 1.88 | 0 | 0.0401 | 2.93 | 0 | 3.26 | 13.8 | 0.0164
Cn1c(=O)c2c(ncn2CC2OCCO2)n(C)c1=O [Doxofylline] (max dose 10000 nM) | 0 | 0.466 | 8.8 | 0 | 6.02 | 1.02 | 0.279 | 2.09 | 11.2 | 0 | 1.88 | 0 | 1.68 | 2.63 | 4.53 | 3.89
CC1=C(C(=O)Nc2ccc3[nH]ncc3c2)C(c2ccc(F)cc2)NC(=O)N1 (stereo not given) (max dose 10000 nM) | 0 | 0 | 0 | 0 | 0 | 0 | 0 | 0 | 0 | 0 | 0 | 0 | 0 | 0 | 0 | 0
CCc1ccc(Cc2ccc3c(c2)[C@]2(OC3)O[C@H](CO)[C@@H](O)[C@H](O)[C@H]2O)cc1 [Tofogliflozin(CSG 452)] (max dose 10000 nM) | 0.0327 | 0 | 13.5 | 1.06 | 0.559 | 0 | 0 | 12.6 | 8.75 | 2.04 | 8.28 | 0 | 0 | 6.14 | 0.274 | 11.3
C[C@@H](Oc1cc(-c2cnn(C3CCNCC3)c2)cnc1N)c1c(Cl)ccc(F)c1Cl (max dose 10000 nM) | 4.11 | 1.07 | 11.7 | 9.21 | 7.06 | 0 | 1.57 | 14.8 | 10.3 | 0 | 5.57 | 8.78 | 0.537 | 21.2 | 5.77 | 8.52
CC#CCn1c(N2CCC[C@@H](N)C2)nc2c1c(=O)n(Cc1nc(C)c3ccccc3n1)c(=O)n2C [Linagliptin] (max dose 10000 nM) | 0 | 0 | 1.11 | 0.655 | 0.00907 | 0 | 0 | 0 | 0 | 0 | 0.575 | 0 | 0 | 0 | 0.112 | 0.0309
COc1cc(OC)cc(-c2cc3cnc(N)nc3nc2NC(=O)NC(C)(C)C)c1 (max dose 10000 nM) | 0 | 0 | 2.15 | 0 | 0 | 0 | 0.657 | 0.000737 | 0 | 0 | 0 | 0 | 0 | 0 | 0 | 0
COc1ccccc1Nc1nc(-c2sc(NC(C)=O)nc2C)cs1 [JNJ0966] (max dose 10000 nM) | 0 | 0 | 0 | 0 | 0 | 0 | 0 | 0 | 0 | 0 | 0 | 0.463 | 0 | 0 | 0 | 0
CCNC1(C(N)=O)CCN(c2ncnc3c2nc(-c2ccccc2Cl)n3-c2ccc(Cl)cc2)CC1 (max dose 10000 nM) | 0 | 0 | 0 | 0 | 0 | 0 | 0 | 0 | 0.853 | 0 |  | 0 | 0 | 0 | 0 | 0.18
Clc1cc2c(NC3CCCC3)nnc(-c3ccncc3)c2cc1Cl [A-196] (max dose 10000 nM) |  | 0 | 1.01 | 0 | 0 | 0 | 0 | 10.3 | 0 | 27.2 | 0 | 0 | 0 | 0 | 0 | 0
O=C1CN2Cc3c(ccc(Cl)c3Cl)N=C2N1 [Anagrelide HCl] (max dose 10000 nM) |  |  | 9.8 | 7.88 | 25.9 | 5.74 | 22.3 | 6.25 | 11 | 18.1 |  | 2.96 | 3.35 | 18.4 | 11.3 | 2.49
